Reference: PubChem BioAssay AID720505 (Drosophila RNAi Screening Center, 2013)
The screen tested about 20,000 reagents; shown is an unselected part of those that have a named target and a result. Of all reagents, about 2,100 (10%) got an active call. 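Raw plate signals without normalisation; calls rest on control-based scores that were not deposited; replicate 2 separates called from uncalled poorly.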 Unmarked entries are inactive. The record does not give: the amount of reagent, the time to read-out.

Screen: 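Genes needed for store-operated calcium entry in fly cells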 (primary screen)
System: Drosophila S2R+ cells
Reagents: long dsRNA against Drosophila genes
Challenge: thapsigargin (2 µM) in calcium-free buffer to empty internal stores, then 2 mM calcium added back
Detection: 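Stores emptied by 2 µM thapsigargin without calcium, then 2 mM calcium re-added; fluo-4 fluorescence followed by FLIPR in 384-well plates, per-well averaged endpoint, raw; two screen passes, some wells retested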
Reading the numbers: calcium signal and retest calcium signal: higher = more calcium entry after store depletion
Active means: 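About 1500 genes called as lowering calcium entry, by varying amounts, judged against per-plate control wells with STIM1 as positive and Rho1 as negative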
Calls: active = called as lowering calcium entry; inactive = not called

After knock-down of RpL8 (Ribosomal protein L8) [DRSC08532], the screen gave calcium signal, replicate 1 = 51.4 (active); calcium signal, replicate 2 = 42.7. Against RpL8 (Ribosomal protein L8) [DRSC08695], the entry reads calcium signal, replicate 1 = 58.6 (active); calcium signal, replicate 2 = 72.3. With knock-down of Fis1 (Fission, mitochondrial 1) [DRSC07772] the results were calcium signal, replicate 1 = 95; calcium signal, replicate 2 = 140. AANATL4 (Arylalkylamine N-acetyltransferase-like 4) [DRSC06774] showed calcium signal, replicate 1 = 203; calcium signal, replicate 2 = 116. With knock-down of CG32445 [DRSC11678], the record shows calcium signal, replicate 1 = 88.4; calcium signal, replicate 2 = 163. Against CG31788 [DRSC01630], the entry reads calcium signal, replicate 1 = 204; calcium signal, replicate 2 = 79.4.

With knock-down of CG10553 [DRSC14254] the results were calcium signal, replicate 1 = 241; calcium signal, replicate 2 = 126. Knock-down of CG5921 [DRSC18390] came out at: calcium signal, replicate 1 = 255; calcium signal, replicate 2 = 122. Depletion of defl (deflated) [DRSC10300] resulted in: calcium signal, replicate 1 = 61.5 (active); calcium signal, replicate 2 = 79.4. After knock-down of Jon25Bii (Jonah 25Bii) [DRSC03114], the screen gave calcium signal, replicate 1 = 155; calcium signal, replicate 2 = 126. With knock-down of B52 [DRSC14121], the screen gave calcium signal, replicate 1 = 114; calcium signal, replicate 2 = 116; retest calcium signal, replicate 1 = 84.5; retest calcium signal, replicate 2 = 105. CG4021 [DRSC04439] showed calcium signal, replicate 1 = 147; calcium signal, replicate 2 = 133.

ave (aveugle) [DRSC05502] gave calcium signal, replicate 1 = 55.4 (active); calcium signal, replicate 2 = 135. Knock-down of Phm (Peptidylglycine-alpha-hydroxylating monooxygenase) [DRSC04639] gave: calcium signal, replicate 1 = 98.5; calcium signal, replicate 2 = 99.5. Against Rtnl2 [DRSC12609] the deposit lists calcium signal, replicate 1 = 130; calcium signal, replicate 2 = 133. For Rtnl2 [DRSC21655], the values are calcium signal, replicate 1 = 155; calcium signal, replicate 2 = 99.2. Ccdc39 (Coiled-coil domain containing protein 39) [DRSC12286] scored calcium signal, replicate 1 = 106; calcium signal, replicate 2 = 96. CG12723 [DRSC19499] gave calcium signal, replicate 1 = 124; calcium signal, replicate 2 = 95; retest calcium signal, replicate 1 = 95.8; retest calcium signal, replicate 2 = 106.

Reagents above marked active, once more:
RpL8 (Ribosomal protein L8) [DRSC08532] — calcium signal, replicate 1 = 51.4 (active); calcium signal, replicate 2 = 42.7
RpL8 (Ribosomal protein L8) [DRSC08695] — calcium signal, replicate 1 = 58.6 (active); calcium signal, replicate 2 = 72.3
defl (deflated) [DRSC10300] — calcium signal, replicate 1 = 61.5 (active); calcium signal, replicate 2 = 79.4
ave (aveugle) [DRSC05502] — calcium signal, replicate 1 = 55.4 (active); calcium signal, replicate 2 = 135

The listing continues:
Silencing of CG14314 [DRSC14793] gave: calcium signal, replicate 1 = 224; calcium signal, replicate 2 = 188. After knock-down of LanA (Laminin A) [DRSC11207], the record shows calcium signal, replicate 1 = 110; calcium signal, replicate 2 = 79.3. Knock-down of Sulf1 (Sulfated) [DRSC16874] gave: calcium signal, replicate 1 = 139; calcium signal, replicate 2 = 148. For CG12355 [DRSC09381] the deposit lists calcium signal, replicate 1 = 114; calcium signal, replicate 2 = 99. CG12355 [DRSC09883] gave calcium signal, replicate 1 = 107; calcium signal, replicate 2 = 126. CG10194 [DRSC02025] gave calcium signal, replicate 1 = 96.1; calcium signal, replicate 2 = 99.3.

For capu (cappuccino) [DRSC00208], the entry reads calcium signal, replicate 1 = 85.1 (active); calcium signal, replicate 2 = 125. Against capu (cappuccino) [DRSC00209], the entry reads calcium signal, replicate 1 = 78; calcium signal, replicate 2 = 96.5. After knock-down of capu (cappuccino) [DRSC00434], the record shows calcium signal, replicate 1 = 167; calcium signal, replicate 2 = 85.5. capu (cappuccino) [DRSC00807] showed calcium signal, replicate 1 = 128; calcium signal, replicate 2 = 190.
